From the supplement of paper PMC10849652
This is one part of the list.

Chains of the proteins cited; added tags and fusions are not shown. Lines headed by an entry give the natural chain unless they say otherwise; changes in a name come on top.
UniProt Q96JG6: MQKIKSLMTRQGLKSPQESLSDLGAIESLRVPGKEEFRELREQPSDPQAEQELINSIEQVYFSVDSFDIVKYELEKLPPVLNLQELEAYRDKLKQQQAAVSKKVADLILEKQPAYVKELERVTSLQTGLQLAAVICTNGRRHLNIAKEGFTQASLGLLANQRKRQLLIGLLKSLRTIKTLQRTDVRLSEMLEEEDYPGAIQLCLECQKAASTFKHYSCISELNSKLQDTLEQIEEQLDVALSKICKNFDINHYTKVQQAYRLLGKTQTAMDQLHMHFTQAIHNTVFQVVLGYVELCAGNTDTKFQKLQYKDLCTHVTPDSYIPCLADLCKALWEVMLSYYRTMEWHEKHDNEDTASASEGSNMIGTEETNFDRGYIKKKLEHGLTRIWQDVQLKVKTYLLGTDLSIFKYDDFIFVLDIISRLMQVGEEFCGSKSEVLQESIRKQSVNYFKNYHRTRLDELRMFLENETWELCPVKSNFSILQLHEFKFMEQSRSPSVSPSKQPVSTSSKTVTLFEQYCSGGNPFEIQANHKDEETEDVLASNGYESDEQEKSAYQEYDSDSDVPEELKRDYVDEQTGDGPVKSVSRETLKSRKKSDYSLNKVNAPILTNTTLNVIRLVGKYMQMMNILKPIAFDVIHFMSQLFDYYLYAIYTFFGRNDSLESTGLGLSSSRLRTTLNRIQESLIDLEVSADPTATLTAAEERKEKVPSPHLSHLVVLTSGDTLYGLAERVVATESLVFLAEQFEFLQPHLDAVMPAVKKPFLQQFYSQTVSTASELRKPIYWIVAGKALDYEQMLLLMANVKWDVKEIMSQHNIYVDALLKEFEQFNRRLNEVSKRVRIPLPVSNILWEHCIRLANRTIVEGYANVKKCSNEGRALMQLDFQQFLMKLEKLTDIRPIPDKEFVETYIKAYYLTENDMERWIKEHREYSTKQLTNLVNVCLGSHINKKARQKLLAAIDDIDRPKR
UniProt Q7Z5K2: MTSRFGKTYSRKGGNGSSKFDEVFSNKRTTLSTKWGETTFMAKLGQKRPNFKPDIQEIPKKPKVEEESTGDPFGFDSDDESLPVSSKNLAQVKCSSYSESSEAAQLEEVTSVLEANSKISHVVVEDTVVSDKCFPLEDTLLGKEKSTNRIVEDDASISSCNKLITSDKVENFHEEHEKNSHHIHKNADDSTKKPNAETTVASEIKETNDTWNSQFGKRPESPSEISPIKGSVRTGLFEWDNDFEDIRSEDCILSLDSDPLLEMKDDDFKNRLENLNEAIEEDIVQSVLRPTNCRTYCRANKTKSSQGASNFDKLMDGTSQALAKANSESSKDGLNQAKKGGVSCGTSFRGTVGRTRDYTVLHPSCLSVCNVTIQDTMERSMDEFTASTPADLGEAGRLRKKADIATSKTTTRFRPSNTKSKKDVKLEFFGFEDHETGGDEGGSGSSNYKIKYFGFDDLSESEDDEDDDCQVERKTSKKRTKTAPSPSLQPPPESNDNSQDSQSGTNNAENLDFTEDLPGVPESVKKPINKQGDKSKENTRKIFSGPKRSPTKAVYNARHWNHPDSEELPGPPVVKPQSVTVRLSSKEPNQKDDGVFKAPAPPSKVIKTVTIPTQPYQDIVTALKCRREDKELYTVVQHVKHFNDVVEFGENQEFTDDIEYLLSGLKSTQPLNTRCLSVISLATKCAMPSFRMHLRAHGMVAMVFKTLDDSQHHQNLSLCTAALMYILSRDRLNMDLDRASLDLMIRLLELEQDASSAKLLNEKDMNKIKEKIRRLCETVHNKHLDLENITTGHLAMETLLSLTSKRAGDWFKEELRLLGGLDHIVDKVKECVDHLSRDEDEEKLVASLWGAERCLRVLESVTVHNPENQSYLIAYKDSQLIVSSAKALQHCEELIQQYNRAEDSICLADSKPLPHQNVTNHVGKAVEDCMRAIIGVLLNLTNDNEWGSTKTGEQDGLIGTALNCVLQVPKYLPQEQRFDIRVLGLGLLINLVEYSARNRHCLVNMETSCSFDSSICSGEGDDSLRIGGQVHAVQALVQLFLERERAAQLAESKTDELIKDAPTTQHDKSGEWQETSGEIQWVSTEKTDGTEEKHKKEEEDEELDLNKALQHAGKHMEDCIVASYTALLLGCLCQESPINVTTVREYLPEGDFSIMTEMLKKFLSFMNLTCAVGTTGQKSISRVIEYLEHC
UniProt Q9BRG1: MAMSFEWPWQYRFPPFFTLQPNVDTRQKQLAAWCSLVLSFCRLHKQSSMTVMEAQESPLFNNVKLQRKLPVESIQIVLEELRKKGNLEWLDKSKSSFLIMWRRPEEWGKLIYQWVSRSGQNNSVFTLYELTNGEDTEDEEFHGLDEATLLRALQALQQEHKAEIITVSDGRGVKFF
UniProt Q01831: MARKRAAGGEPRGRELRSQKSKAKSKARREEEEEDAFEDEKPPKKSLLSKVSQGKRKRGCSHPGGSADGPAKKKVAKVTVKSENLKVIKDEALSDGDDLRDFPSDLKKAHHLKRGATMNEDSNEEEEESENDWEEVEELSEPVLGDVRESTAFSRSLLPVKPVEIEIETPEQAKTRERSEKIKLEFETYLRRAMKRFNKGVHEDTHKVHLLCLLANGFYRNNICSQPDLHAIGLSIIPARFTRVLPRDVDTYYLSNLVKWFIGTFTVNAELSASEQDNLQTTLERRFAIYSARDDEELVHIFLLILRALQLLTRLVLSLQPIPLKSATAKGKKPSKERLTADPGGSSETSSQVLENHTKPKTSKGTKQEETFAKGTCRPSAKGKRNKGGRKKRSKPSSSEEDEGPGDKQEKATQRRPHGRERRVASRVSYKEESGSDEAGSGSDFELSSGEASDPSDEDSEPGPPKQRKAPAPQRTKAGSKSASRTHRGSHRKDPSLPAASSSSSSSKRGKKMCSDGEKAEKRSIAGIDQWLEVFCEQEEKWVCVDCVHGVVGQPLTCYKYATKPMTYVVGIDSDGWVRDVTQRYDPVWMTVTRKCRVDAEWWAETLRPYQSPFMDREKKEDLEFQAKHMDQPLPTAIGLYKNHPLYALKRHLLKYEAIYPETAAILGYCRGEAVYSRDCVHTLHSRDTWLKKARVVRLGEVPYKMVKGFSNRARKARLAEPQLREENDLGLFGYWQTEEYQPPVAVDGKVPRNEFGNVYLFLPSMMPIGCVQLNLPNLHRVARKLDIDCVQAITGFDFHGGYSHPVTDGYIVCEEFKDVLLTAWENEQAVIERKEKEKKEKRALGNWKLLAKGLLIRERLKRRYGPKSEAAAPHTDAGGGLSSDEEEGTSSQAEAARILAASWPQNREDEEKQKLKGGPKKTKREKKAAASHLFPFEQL
UniProt P04004: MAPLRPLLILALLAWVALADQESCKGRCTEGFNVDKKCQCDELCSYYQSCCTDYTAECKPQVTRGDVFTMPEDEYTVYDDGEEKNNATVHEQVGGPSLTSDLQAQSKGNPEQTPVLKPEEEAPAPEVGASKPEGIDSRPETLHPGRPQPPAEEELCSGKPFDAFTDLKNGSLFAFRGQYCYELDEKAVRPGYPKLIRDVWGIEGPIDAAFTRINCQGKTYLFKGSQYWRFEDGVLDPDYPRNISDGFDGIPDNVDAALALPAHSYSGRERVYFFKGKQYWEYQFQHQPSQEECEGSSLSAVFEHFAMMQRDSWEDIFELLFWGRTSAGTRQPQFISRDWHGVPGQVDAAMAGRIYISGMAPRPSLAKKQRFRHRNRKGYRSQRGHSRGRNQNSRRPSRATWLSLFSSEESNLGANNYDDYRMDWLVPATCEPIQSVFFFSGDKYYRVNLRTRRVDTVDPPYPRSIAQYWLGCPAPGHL
UniProt O94967: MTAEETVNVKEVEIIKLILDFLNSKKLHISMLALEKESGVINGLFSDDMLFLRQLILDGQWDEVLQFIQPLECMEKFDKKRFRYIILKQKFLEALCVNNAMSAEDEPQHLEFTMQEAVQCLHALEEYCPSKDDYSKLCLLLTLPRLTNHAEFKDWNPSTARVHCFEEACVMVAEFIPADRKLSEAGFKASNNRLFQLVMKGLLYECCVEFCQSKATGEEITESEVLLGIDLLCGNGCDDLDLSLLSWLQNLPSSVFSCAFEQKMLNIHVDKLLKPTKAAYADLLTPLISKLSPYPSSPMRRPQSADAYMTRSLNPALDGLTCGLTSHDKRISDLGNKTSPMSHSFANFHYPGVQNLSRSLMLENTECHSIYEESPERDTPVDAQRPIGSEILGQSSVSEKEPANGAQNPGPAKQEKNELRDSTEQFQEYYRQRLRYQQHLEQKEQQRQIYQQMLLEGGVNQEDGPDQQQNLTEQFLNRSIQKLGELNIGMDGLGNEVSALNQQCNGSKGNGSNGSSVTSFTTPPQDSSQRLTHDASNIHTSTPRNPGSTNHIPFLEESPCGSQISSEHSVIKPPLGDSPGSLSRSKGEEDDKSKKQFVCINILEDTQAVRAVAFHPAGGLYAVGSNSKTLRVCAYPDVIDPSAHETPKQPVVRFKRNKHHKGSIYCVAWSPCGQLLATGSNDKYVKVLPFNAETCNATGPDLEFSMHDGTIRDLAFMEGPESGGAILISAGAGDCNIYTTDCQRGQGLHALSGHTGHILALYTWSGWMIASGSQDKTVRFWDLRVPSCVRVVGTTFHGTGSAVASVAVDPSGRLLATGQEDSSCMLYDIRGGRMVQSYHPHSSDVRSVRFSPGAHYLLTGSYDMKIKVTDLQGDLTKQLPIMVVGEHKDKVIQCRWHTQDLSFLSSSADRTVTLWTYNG
UniProt Q86Y07: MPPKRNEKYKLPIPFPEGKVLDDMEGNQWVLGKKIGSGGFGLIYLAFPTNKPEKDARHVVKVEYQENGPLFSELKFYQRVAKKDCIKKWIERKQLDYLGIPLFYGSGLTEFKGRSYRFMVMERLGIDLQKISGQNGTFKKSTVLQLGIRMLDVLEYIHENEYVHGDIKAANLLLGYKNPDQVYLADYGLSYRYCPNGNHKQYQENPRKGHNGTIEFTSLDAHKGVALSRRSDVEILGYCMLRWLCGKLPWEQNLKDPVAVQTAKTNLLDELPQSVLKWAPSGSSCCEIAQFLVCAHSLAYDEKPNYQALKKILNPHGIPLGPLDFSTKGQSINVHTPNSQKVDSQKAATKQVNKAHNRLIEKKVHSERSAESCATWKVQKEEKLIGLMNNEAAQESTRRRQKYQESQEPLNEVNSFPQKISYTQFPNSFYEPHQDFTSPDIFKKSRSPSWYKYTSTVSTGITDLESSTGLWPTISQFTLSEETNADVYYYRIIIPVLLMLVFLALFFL
UniProt Q9H1Z4: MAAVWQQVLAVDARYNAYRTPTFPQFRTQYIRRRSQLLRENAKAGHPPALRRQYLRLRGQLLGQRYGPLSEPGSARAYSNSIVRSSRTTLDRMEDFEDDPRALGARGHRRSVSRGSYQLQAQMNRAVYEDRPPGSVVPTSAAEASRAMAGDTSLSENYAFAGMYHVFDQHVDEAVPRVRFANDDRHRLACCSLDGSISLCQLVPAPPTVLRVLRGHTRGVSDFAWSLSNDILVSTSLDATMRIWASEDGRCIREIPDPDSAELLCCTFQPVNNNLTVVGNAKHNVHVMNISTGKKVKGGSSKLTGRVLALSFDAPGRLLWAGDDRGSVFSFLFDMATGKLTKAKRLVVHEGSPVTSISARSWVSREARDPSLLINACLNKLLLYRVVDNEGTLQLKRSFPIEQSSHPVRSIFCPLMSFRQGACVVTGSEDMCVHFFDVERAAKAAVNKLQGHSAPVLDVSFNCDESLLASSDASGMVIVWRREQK
UniProt O15213: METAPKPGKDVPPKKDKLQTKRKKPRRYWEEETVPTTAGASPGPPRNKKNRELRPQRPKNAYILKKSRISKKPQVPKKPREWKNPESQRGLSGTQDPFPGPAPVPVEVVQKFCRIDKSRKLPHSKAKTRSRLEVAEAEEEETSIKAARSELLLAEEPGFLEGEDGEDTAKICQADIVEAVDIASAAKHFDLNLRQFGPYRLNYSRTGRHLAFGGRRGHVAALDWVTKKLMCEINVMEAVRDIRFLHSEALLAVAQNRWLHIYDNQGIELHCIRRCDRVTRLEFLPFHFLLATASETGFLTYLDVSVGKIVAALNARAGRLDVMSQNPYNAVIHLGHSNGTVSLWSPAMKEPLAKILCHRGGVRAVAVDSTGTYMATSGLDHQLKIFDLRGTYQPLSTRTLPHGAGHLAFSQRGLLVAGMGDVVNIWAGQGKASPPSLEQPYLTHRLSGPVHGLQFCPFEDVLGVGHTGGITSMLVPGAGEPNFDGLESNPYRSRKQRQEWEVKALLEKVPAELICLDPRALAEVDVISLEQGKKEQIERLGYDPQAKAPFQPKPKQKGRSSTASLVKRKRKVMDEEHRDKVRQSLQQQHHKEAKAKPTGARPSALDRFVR

How the values were obtained:
Experiment in all cases: log2 fold change, soluble protein after heating vs DMSO (PISA); higher = thermal stabilisation; K562 lysate, 10 uM; active = over 0.2 and 3.5 SD of the protein, either way, in both replicates (recomputed)
nilotinib = compound: Cc1cn(-c2cc(NC(=O)c3ccc(C)c(Nc4nccc(-c5cccnc5)n4)c3)cc(C(F)(F)F)c2)cn1 [nilotinib]
Procedure, shortened: (§1)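 Values give the log-two fold change in thermal stability against solvent controls, from duplicates. Crude K562 extract at 1 mg/mL protein, made by dounce homogenisation in PBS pH 7.4 with 1 mM MgCl2, was treated with 10 μM compound for 30 min. After 3 min heating across 48°C-58°C, aliquots were pooled, adjusted to 0.5% NP-40 at 4°C and centrifuged at 21,000xg for 90 min. The supernatant was measured by TMTpro 16plex LC-MS/MS with channel sums equalised.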

[1] = compound: Cc1nc(Nc2n[nH]c3c2CN(C(=O)N[C@H](CN(C)C)c2ccccc2)C3(C)C)c2sccc2n1
Procedure, shortened: as §1

dasatinib = compound: Cc1nc(Nc2ncc(C(=O)Nc3c(C)cccc3Cl)s2)cc(N2CCN(CCO)CC2)n1 [dasatinib]
Procedure, shortened: as §1

[2] = compound: Cc1ncc(-c2ccnc(Nc3ccc(S(C)(=O)=O)cc3)n2)n1C(C)C
Procedure, shortened: as §1

[3] = compound: Cn1cc(-c2ccc3c(c2)CCN3C(=O)Cc2cccc(C(F)(F)F)c2)c2c(N)ncnc21
Procedure, shortened: as §1

quisinostat = compound: Cn1cc(CNCC2CCN(c3ncc(C(=O)NO)cn3)CC2)c2ccccc21 [quisinostat]
Procedure, shortened: as §1

tipifarnib = compound: Cn1cncc1[C@@](N)(c1ccc(Cl)cc1)c1ccc2c(c1)c(-c1cccc(Cl)c1)cc(=O)n2C [tipifarnib]
Procedure, shortened: as §1

[4] = compound: NC(=O)Nc1cc(-c2cccc(F)c2)sc1C(=O)N[C@H]1CCCNC1
Procedure, shortened: as §1

[5] = compound: NC(=O)c1cnc(N[C@@H]2CCCC[C@@H]2N)nc1Nc1cccc(-n2nccn2)c1
Procedure, shortened: as §1

[6] = compound: NC1(c2ccc(-c3nc4ccn5c(=O)[nH]nc5c4cc3-c3ccccc3)cc2)CCC1
Procedure, shortened: as §1

[7] = compound: NCC(=O)Nc1ccc(-n2nc(C(F)(F)F)cc2-c2ccc3c(ccc4ccccc43)c2)cc1
Procedure, shortened: as §1

vorinostat = compound: O=C(CCCCCCC(=O)Nc1ccccc1)NO [vorinostat]
Procedure, shortened: as §1

silmitasertib = compound: O=C(O)c1ccc2c(c1)nc(Nc1cccc(Cl)c1)c1ccncc12 [silmitasertib]
Procedure, shortened: as §1

[8] = compound: O=C1NC(=O)C(c2cnc3ccccn23)=C1c1cn2c3c(cc(F)cc13)CN(C(=O)N1CCCCC1)CC2
Procedure, shortened: as §1

entospletinib = compound: c1cn2cc(-c3ccc4cn[nH]c4c3)nc(Nc3ccc(N4CCOCC4)cc3)c2n1 [entospletinib]
Procedure, shortened: as §1

Measured: log2 fold change

VPS50 (UniProt Q96JG6)
inactive: nilotinib -0.011 | [1] -0.005 | dasatinib -0.07 | [2] 0.02 | [3] 0.004 | quisinostat 0.01 | tipifarnib -0.032 | [4] 0.038 | [5] 0.033 | [6] 0.036 | [7] -0.009 | vorinostat -0.145 | silmitasertib 0.024 | [8] 0.029 | entospletinib 0.03

WWP2 (UniProt O00308)
inactive: nilotinib 0.043 | [1] -0.107 | dasatinib -0.143 | [2] 0.013 | [3] 0.155 | quisinostat 0.081 | tipifarnib 0.032 | [4] -0.025 | [5] -0.052 | [6] -0.042 | [7] 0.002 | vorinostat -0.143 | silmitasertib 0.016 | [8] 0.002 | entospletinib 0.047

WAPL isoform 3 (UniProt Q7Z5K2)
inactive: nilotinib 0.002 | [1] 0.04 | dasatinib 0.017 | [2] 0.015 | [3] -0.004 | quisinostat -0.104 | tipifarnib -0.002 | [4] 0.017 | [5] 0.009 | [6] 0.02 | [7] 0.001 | vorinostat -0.163 | silmitasertib -0.028 | [8] -0.038 | entospletinib -0.013

VPS25 (UniProt Q9BRG1)
inactive: nilotinib -0.006 | [1] 0.008 | dasatinib 0.01 | [2] -0.074 | [3] -0.007 | quisinostat 0.027 | tipifarnib 0.036 | [4] 0.006 | [5] -0.006 | [6] -0.004 | [7] -0.045 | vorinostat 0.056 | silmitasertib -0.023 | [8] 0.003 | entospletinib 0.001

VKORC1 (UniProt Q9BQB6)
inactive: nilotinib -0.022 | [1] -0.037 | dasatinib -0.046 | [2] -0.025 | [3] 0.018 | quisinostat -0.052 | tipifarnib -0.116 | [4] 0.055 | [5] 0.047 | [6] -0.028 | [7] -0.05 | vorinostat 0.04 | silmitasertib 0.024 | [8] -0.033 | entospletinib -0.053

XPC (UniProt Q01831)
inactive: nilotinib 0.088 | [1] -0.116 | dasatinib -0.007 | [2] 0.006 | [3] -0.001 | quisinostat -0.069 | tipifarnib -0.122 | [4] 0.068 | [5] -0.005 | [6] -0.055 | [7] 0.023 | vorinostat 0.07 | silmitasertib -0.014 | [8] 0.087 | entospletinib -0.028

VTN (UniProt P04004)
inactive: nilotinib 0.04 | [1] 0.064 | dasatinib 0.019 | [2] -0.102 | [3] 0 | quisinostat 0.022 | tipifarnib -0.092 | [4] 0.006 | [5] -0.063 | [6] -0.03 | [7] 0.126 | vorinostat -0.07 | silmitasertib -0.076 | [8] -0.085 | entospletinib -0.146

WDR47 (UniProt O94967)
inactive: nilotinib 0.043 | [1] -0.075 | dasatinib 0.072 | [2] -0.013 | [3] 0.039 | quisinostat -0.039 | tipifarnib -0.001 | [4] 0.008 | [5] -0.033 | [6] -0.01 | [7] -0.002 | vorinostat 0.04 | silmitasertib -0.021 | [8] -0.041 | entospletinib -0.036

VRK2 (UniProt Q86Y07)
inactive: nilotinib 0.048 | [1] 0.219 | dasatinib 0.185 | [2] 0.017 | [3] 0.17 | quisinostat -0.044 | tipifarnib -0.018 | [4] 0.026 | [5] -0.003 | [6] -0.006 | [7] -0.158 | vorinostat -0.166 | silmitasertib -0.022 | [8] 0.039 | entospletinib -0.064

WDR61 (UniProt Q9GZS3)
inactive: nilotinib -0.019 | [1] -0.031 | dasatinib -0.071 | [2] -0.069 | [3] 0.004 | quisinostat -0.011 | tipifarnib 0.026 | [4] -0.016 | [5] -0.008 | [6] -0.053 | [7] -0.014 | vorinostat 0.025 | silmitasertib -0.008 | [8] 0.016 | entospletinib 0.011

WDR81 (UniProt Q562E7)
inactive: nilotinib 0 | [1] 0.024 | dasatinib -0.028 | [2] -0.007 | [3] 0.008 | quisinostat 0.003 | tipifarnib -0.015 | [4] 0.051 | [5] -0.013 | [6] 0.002 | [7] 0.11 | vorinostat -0.09 | silmitasertib -0.024 | [8] -0.078 | entospletinib -0.032

WRN (UniProt Q14191)
inactive: nilotinib -0.027 | [1] -0.018 | dasatinib -0.108 | [2] -0.004 | [3] 0.022 | quisinostat -0.042 | tipifarnib -0.005 | [4] 0.03 | [5] 0.089 | [6] -0.013 | [7] 0.003 | silmitasertib 0.035 | [8] -0.013 | entospletinib -0.005
active: vorinostat -0.282

WDCP (UniProt Q9H6R7)
inactive: nilotinib -0.01 | [1] 0.001 | dasatinib -0.035 | [2] 0.006 | [3] -0.018 | quisinostat -0.107 | tipifarnib 0.009 | [4] 0.014 | [5] -0.069 | [6] 0.007 | [7] -0.066 | silmitasertib 0.022 | [8] 0.02 | entospletinib -0.036
active: vorinostat -0.233

WDR13 (UniProt Q9H1Z4)
inactive: nilotinib -0.004 | [1] 0.015 | dasatinib -0.02 | [2] -0.063 | [3] 0.064 | quisinostat 0.046 | tipifarnib -0.009 | [4] 0.009 | [5] -0.001 | [6] 0.018 | [7] -0.036 | vorinostat 0.048 | silmitasertib 0.032 | [8] -0.031 | entospletinib -0.007

WDR48 (UniProt Q8TAF3)
inactive: nilotinib -0.024 | [1] 0.038 | dasatinib 0.01 | [2] 0.019 | [3] 0.02 | quisinostat -0.039 | tipifarnib 0.015 | [4] -0.02 | [5] 0.015 | [6] -0.028 | [7] 0.003 | vorinostat 0.053 | silmitasertib -0.009 | [8] -0.023 | entospletinib 0.01

WDR37 isoform 2 (UniProt Q9Y2I8)
inactive: nilotinib -0.033 | [1] 0.038 | dasatinib 0.011 | [2] -0.022 | [3] 0.026 | quisinostat -0.041 | tipifarnib -0.093 | [4] 0.033 | [5] -0.076 | [6] -0.003 | [7] -0.048 | vorinostat -0.211 | silmitasertib -0.008 | [8] -0.027 | entospletinib -0.054

WDR46 (UniProt O15213)
inactive: nilotinib 0.017 | [1] -0.212 | dasatinib 0.003 | [2] -0.101 | [3] 0.036 | quisinostat -0.109 | tipifarnib 0.033 | [4] 0.028 | [5] 0.013 | [6] -0.093 | [7] -0.002 | vorinostat 0.032 | silmitasertib 0.053 | [8] -0.023 | entospletinib -0.113

2 entries drawn at random from the list so far, as already listed:
WDR48 (UniProt Q8TAF3)
inactive: nilotinib -0.024 | [1] 0.038 | dasatinib 0.01 | [2] 0.019 | [3] 0.02 | quisinostat -0.039 | tipifarnib 0.015 | [4] -0.02 | [5] 0.015 | [6] -0.028 | [7] 0.003 | vorinostat 0.053 | silmitasertib -0.009 | [8] -0.023 | entospletinib 0.01

WDR46 (UniProt O15213)
inactive: nilotinib 0.017 | [1] -0.212 | dasatinib 0.003 | [2] -0.101 | [3] 0.036 | quisinostat -0.109 | tipifarnib 0.033 | [4] 0.028 | [5] 0.013 | [6] -0.093 | [7] -0.002 | vorinostat 0.032 | silmitasertib 0.053 | [8] -0.023 | entospletinib -0.113

Carrying on.

WDR26, A0A499FIZ0
inactive: nilotinib -0.01 | [1] 0.013 | dasatinib -0.008 | [2] -0.007 | [3] 0.037 | quisinostat -0.028 | tipifarnib 0.005 | [4] -0.005 | [5] 0.019 | [6] 0.011 | [7] -0.024 | vorinostat -0.124 | silmitasertib 0.01 | [8] -0.032 | entospletinib 0.002

VKORC1L1, A0A3B3ISV4
inactive: nilotinib 0.084 | [1] 0.024 | dasatinib 0.015 | [2] 0.005 | [3] 0.006 | quisinostat 0.186 | tipifarnib 0.014 | [4] -0.046 | [5] -0.032 | [6] 0.065 | [7] 0.001 | vorinostat -0.014 | silmitasertib 0 | [8] 0.015 | entospletinib 0.058
